Laboratory results reported in patent US20190262453A1, “DESIGN AND COMPOSITION OF CELL-STABILIZED PHARMACEUTICAL FORMULATIONS” (THE REGENTS OF THE UNIVERSITY OF MICHIGAN, priority 2016, published 2019).

Tested on: RAW264.7 cells
Test: Epifluorescence microscopy of CFZ-incubated RAW264.7 cells (colocalization of fluorescent spots)
Assay type: cell-based
Conditions: RAW264.7 cells incubated with CFZ

## CC(C)N=c1cc2n(-c3ccc(Cl)cc3)c3ccccc3nc-2cc1Nc1ccc(Cl)cc1 [CFZ, 3-(p-chloroanilino)-10-(p-chlorophenyl)-2, 10-dihydro-2-isopropyliminophenazine]
  Pearson's Colocalization Coefficient, far-red with green fluorescent spots: 0.30±0.29
  Pearson's Colocalization Coefficient, red with far-red fluorescent spots: 0.61±0.20
  Pearson's Colocalization Coefficient, red with green fluorescent spots: 0.60±0.22
